Results deposited as PubChem BioAssay AID1259308 (NCATS, 2017).

Purpose: 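Genes whose loss raises luciferase production in HEK293 cells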 (primary screen)
Cell system: human HEK293 embryonic kidney cells stably expressing firefly luciferase (HEK-CMV-Luc2-Hygro)
Reagents: single siRNA against human genes, 0.8 pmol siRNA per well
Timing: 72 h
Read-out: 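Luciferase light (ONE-Glo) measured on one replicate plate set and viability (CellTiter-Glo) on the other, scaled to a negative control siRNA, with robust z-scores and luciferase per cell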
Scale: total luciferase, z-score and total luciferase, % of control: higher = more reporter protein produced; luciferase per cell, z-score: higher = more reporter output per viable cell; viable cells, % of control: higher = more viable cells
Active means: 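An siRNA counts as active if its total luciferase robust z-score exceeds 3; genes with two or more such siRNAs out of three were retested with fresh siRNAs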
Meaning of the calls: active = raised luciferase; inactive = no rise
Shown is a random part of about 59,000 reagents tested. Of all reagents, about 1,510 (2.6%) were called active. 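Calls use total luciferase alone and ignore viability, so some active siRNAs may act by altering cell number.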 Reagents against one gene are numbered here.

Target gene	siRNA no.	total luciferase, z-score	total luciferase, % of control	luciferase per cell, z-score	viable cells, % of control	call
DTX3L	1	2.77	137	1.42	105	inactive
DTX3L	2	-0.576	70.4	-0.483	89.4	inactive
DTX3L	3	-0.0275	81.3	-0.593	106	inactive
SCP2D1	1	0.601	93.8	0.979	81	inactive
SCP2D1	2	0.538	92.6	0.355	94.2	inactive
SCP2D1	3	0.31	88.1	0.918	77.3	inactive
PEA15	1	1.05	103	0.714	95.2	inactive
PEA15	2	-2.42	33.8	-1.13	50.9	inactive
PEA15	3	-1.37	54.6	-1.15	82.5	inactive
BAZ2B	1	-0.957	62.9	-1.2	96.3	inactive
BAZ2B	2	0.094	83.8	0.197	88.9	inactive
BAZ2B	3	-0.157	78.8	-0.863	110	inactive
C1orf35	1	-0.317	75.6	-1.44	123	inactive
C1orf35	2	-0.558	70.8	-1.3	111	inactive
C1orf35	3	0.777	97.3	-0.379	120	inactive
LINC02297	1	0.891	99.6	0.433	99.3	inactive
LINC02297	2	2.11	124	1.63	90	inactive
LINC02297	3	-0.395	74	-0.803	102	inactive
ZNF704	1	0.998	102	0.927	89.1	inactive
ZNF704	2	0.887	99.5	1.45	75.9	inactive
ZNF704	3	2.82	138	2.39	82.1	inactive
TACC3	1	5.18	185	3.87	74.6	active
TACC3	2	-1.54	51.3	-0.724	69.3	inactive
TACC3	3	0.659	95	1.2	77.3	inactive
VEGFA	1	0.2	85.9	0.75	78.8	inactive
VEGFA	2	0.485	91.5	0.0703	100	inactive
VEGFA	3	0.233	86.5	0.251	90.5	inactive
HFE	1	-0.203	77.9	0.584	74.6	inactive
HFE	2	1.76	117	1.05	99	inactive
HFE	3	-1.92	43.8	-2.39	91.7	inactive
NSD2	1	-0.286	76.2	0.0333	84.4	inactive
NSD2	2	1.39	109	0.831	98.3	inactive
NSD2	3	-0.743	67.1	0.632	63.5	inactive
BSCL2	1	0.194	85.7	-0.131	99.2	inactive
BSCL2	2	0.339	88.6	-0.0864	101	inactive
BSCL2	3	-0.498	72	-1	105	inactive
TTYH2	1	-1.22	57.5	-0.93	82.1	inactive
TTYH2	2	0.432	90.5	0.18	96.4	inactive
TTYH2	3	-0.228	77.3	1.47	58.7	inactive
BNC1	1	-1.97	42.6	-2.42	90.2	inactive
BNC1	2	-1.83	45.4	-2.68	103	inactive
BNC1	3	0.14	84.7	-0.445	106	inactive
ANXA3	1	-0.821	65.6	-0.921	93.4	inactive
ANXA3	2	1.22	106	0.935	92.7	inactive
ANXA3	3	-1.06	60.8	0.0455	67.1	inactive
THSD7B	1	-1.35	55	-0.725	74.4	inactive
THSD7B	2	-1.47	52.6	-1.13	79.2	inactive
THSD7B	3	-0.349	75	-0.491	95.3	inactive
RBMS2	1	-1.68	48.5	-2.3	99.4	inactive
RBMS2	2	1.64	115	1.3	91	inactive
RBMS2	3	1.85	119	1.58	87.4	inactive
COQ8B	1	-0.202	77.9	1.17	64	inactive
COQ8B	2	0.405	89.9	0.503	88.1	inactive
COQ8B	3	0.441	90.6	0.401	91.2	inactive
ING4	1	0.232	86.5	0.51	84.5	inactive
ING4	2	-2.26	37	-2.57	81.4	inactive
ING4	3	0.88	99.4	0.616	94.4	inactive

No new results follow: an excerpt of the list.
Target gene	siRNA no.	total luciferase, z-score	total luciferase, % of control	luciferase per cell, z-score	viable cells, % of control	call
BNC1	3	0.14	84.7	-0.445	106	inactive
ANXA3	1	-0.821	65.6	-0.921	93.4	inactive
ANXA3	2	1.22	106	0.935	92.7	inactive
